Results on one molecule are retold here after US12662672B2, “Method of promoting survival and/or function of a motor neuron and related agents, uses and methods” (Agency for Science, Technology and Research, priority 2019, dated 2026).

Experiment [1] concerns ALS MNs. In words: Neuronal morphology (soma size, primary neurites) in ALS MNs. It is filed as cell-based, human. How it is done:
Cells were fixed in 4% paraformaldehyde for 15 minutes, permeabilized in 0.1% Triton X-100 for 15 minutes and blocked in buffer containing 5% FBS and 1% BSA for an hour at room temperature. Primary antibodies (Table S4) were diluted in blocking buffer and incubated overnight at 4° C. Cells were washed thrice in PBS. The respective secondary antibodies were diluted 1:1500 in blocking buffer and incubated at room temperature, in the dark, for 90 minutes. DAPI was used at 0.1 μg/ml to visualize cellular nuclei.
Images were acquired using the high content microscope Phenix (Perkin Elmer) using the 20× air objective. Image analyses including cell counts and intensity measurements were performed using Columbus (Perkin Elmer).
For primary neurites analysis, neuronal projections from the soma size was determined based on SMI-32 staining. For soma size analysis, cellular nuclei were identified by DAPI, and the cytoplasmic area surrounding the nucleus was determined based on SMI-32 staining. Soma size area was measured by image analysis software (ImageJ, NIH) based on the cytoplasmic area surrounding the nucleus, excluding neuronal projections.

The test system of experiment [2] is ALS MNs. In words: Metabolic flux analysis, MitoStress assay (OCR) in ALS MNs. It is filed as cell-based, human. The following applies: day 31, C12 5 μM, Riluzole 5 μM, Edaravone 100 μM. As for the experimental part:
After dissociating with Accutase, cells were blocked with solution containing phosphate-buffered saline, 0.5% bovine serum albumin (BSA) and 2 mM EDTA. The cells were then incubated with CD171-APC antibody (Miltenyi Biotec) and PSA-NCAM-APC antibody (Miltenyi Biotec) for 10 mins at 4° C. After washing, the cells were then incubated with anti-APC microbeads for 15 minutes at 4° C. The cells were then washed twice and filtered prior to loading into the separation column (LS column) that was attached to a magnetic stand (all from Miltenyi Biotec). After three rounds of washing, the column was removed from the magnetic stand and labelled cells were eluted in culture media for replating.
Motor neuron cultures at day 27 were dissociated with Accutase and seeded at 2 million cells per well in a 6-well plate. At day 28, non-targeting siRNA or siRNAs were individually complexed with Lipofectamine RNAiMAX following manufacturer's instructions and added to the motor neuron cultures. For each well, 10 pmol of siRNAs and 8 μl of Lipofectamine RNAiMAX were used. Cells were either harvested for RNA and protein analyses, fixed for immunostaining or metabolic flux analysis were performed 3 days after siRNA transfection.

SMILES strings stand for the structures.

Take `Nc1nc2ccc(OC(F)(F)F)cc2s1` [Riluzole]: in the experiment on ALS MNs [1] (day 31), the “number of primary neurites” value is recorded as “no significant change” and the soma size entry is given as “no significant change”. Also, in the experiment with ALS MNs [1] (day 31, NAM 0.5 mM, C12 5 μM, Riluzole 5 μM, Edaravone 100 μM, siRNA), the neuronal morphologies entry is recorded as “did not improve neuronal morphologies”. The “mitochondrial respiration / metabolic profile” value in the experiment with ALS MNs [2] is “did not show any significant changes”.
